Several values for one entry are separate records, joined by “and”; a condition that tells them apart may be missing. Identical values can stand only once. About 4,300 (3.1%) of roughly 140,000 compounds were called active. Inconclusive results, whose numbers are uncertain, are shown with a selection of clear calls.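 The calls were made as follows: active = readout at or below -70, meaning at least 70% loss of cells showing the perinucleolar compartment, a nuclear body marking cancer cells; inconclusive = readout between -30 and a set limit; inactive = the rest.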
test: High Content Assay for Compounds that inhibit the Assembly of the Perinucleolar Compartment; settings: PC3M PTB-GFP, PNC prevalence imaging, 16 h; at 10 µM; stronger effect = lower value;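 also: plate controls were DMSO wells for no effect and camptothecin positive control wells for full effect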
Summary of the method: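 PC3M cells stably expressing PTB-GFP, 750–1000 cells/well, treated 16 h at 37 °C with compound (23 nl of library stock), in duplicate. After paraformaldehyde fixation and Hoechst stain, imaged at 20x; PNC prevalence scored by image analysis.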

Structure (SMILES)	activity change (PNC), negative = inhibition
CCN(CC)CCn1c(NCc2cccc(OC)c2OC)nc2ccccc21	inconclusive: -30.4%
C=CCn1c(COc2ccc(Cl)cc2)nnc1SCc1ccc(C#N)cc1	inconclusive: -34.4%
CC(C)OCCCN(CC(O)c1ccccc1)CC(O)c1ccccc1 (stereo unspecified)	inconclusive: -30.6%
CCOC(=O)c1c(N)sc(C(C)=O)c1C	inconclusive: -41.1%
CCOc1cc(C(c2c(C)[nH][nH]c2=O)c2c(C)[nH][nH]c2=O)ccc1OCc1ccc([N+](=O)[O-])cc1	inconclusive: -36.9%
COC(=O)c1c(F)c(F)c(N2CCOCC2)c(F)c1F	inconclusive: -38.3%
CCOc1ccccc1C(=O)N(CCC(=O)OC)c1ccccn1	inconclusive: -42.2%
O=C(C1CCCO1)N1CCC(O)(c2ccccc2)CC1 (stereo unspecified)	inconclusive: -54.5%
CCC(=O)c1cc(F)c(N2CCN(S(=O)(=O)c3ccc(C)cc3)CC2)cc1C	inactive: 10.1%
COC(=O)c1ccc(Cl)c(NC(=O)NC2CCCCC2)c1	inconclusive: -52%
O=C(CNC(=S)N(Cc1ccccc1)Cc1cccnc1)NC1CCCC1	inconclusive: -53.6%
O=c1[nH]c2c(s1)C(c1ccc(O)cc1)C1C3CCC(C3)C1S2 (stereo unspecified)	inconclusive: -34.4%
CC1CCC(C(C)C)C(OCC(O)CN2CCOCC2)C1 (stereo unspecified)	active: -110%
COc1ccc(-c2nnc(SCC(=O)NCc3cccs3)n2CC(C)C)cc1	inconclusive: -41.7%
CCCCC(=Nc1ccc(N)cc1)C1=C(O)C(C(=O)OC)C(C)(C)CC1=O (stereo unspecified)	inactive: 34.1%
COc1cc(S(=O)(=O)N2CCCCC2)ccc1NC(C)=O	inconclusive: -60.4%
COc1ccc2c(c1)cc(C)c1nnc(SCC(=O)N3CCN(C(=O)c4ccco4)CC3)n12	inconclusive: -38.7%
COCCNS(=O)(=O)c1cc(C)c(C)cc1C	inactive: 44.8%
CCOc1ccc(Nc2cc(C)nc(-n3nc(C)cc3C)n2)cc1	inconclusive: -62.6%
c1nc(N2CCC3(CC2)OCCO3)c2[nH]cnc2n1	active: -113%
O=C(CNC(=O)Cc1ccccc1)NCC(=O)OCC(=O)c1ccc(Cl)cc1	inconclusive: -46.9%
Cc1occc1C(=O)Nc1nnc(C(F)(F)F)s1	inconclusive: -30.4%
COc1ccc(S(=O)(=O)N(C(C)=O)c2ccc(OC(C)=O)c3ccccc23)cc1[N+](=O)[O-]	inconclusive: -70.4%

Structure (SMILES)	activity change (PNC), negative = inhibition
CC(C)(C)NCCCCOc1ccccc1F	inconclusive: -31.5%
Cc1cc(N/N=C/c2ccccc2Cl)nc(NCc2ccccc2)n1	inconclusive: -35.6%
O=C(CCC1CCCC1)NC1CCCCC1	inactive: 4.9%
Cc1cccc(-n2ncc3c(NCc4ccccc4)ncnc32)c1	inconclusive: -57.9%
CCCCn1c(SCC(=O)Nc2cc(C)on2)nnc1-c1cccnc1	inconclusive: -50.8%
Cc1cccc(S(=O)(=O)c2c(N)n(/N=C/c3ccccc3)c3nc4ccccc4nc23)c1	inconclusive: -32.6%
Nn1cnc2c(c1=O)C1(CCCCC1)Cc1ccccc1-2	inconclusive: -57.4%
CCOC(=O)C1(CC)NC(c2ccco2)C2C(=O)N(CC)C(=O)C21 (stereo unspecified)	inconclusive: -64.9%
Cc1cccc(NC(=O)c2sc3nc(-c4ccccc4)cn3c2C)n1	inconclusive: -41%
CC(C)c1ccc(NCCC(=O)c2cccs2)cc1	inconclusive: -62.8%
O=C1CSC(=S)N1N=C1CCCCCC1	inconclusive: -34.1%
CCOC(=O)c1nn(-c2sc(C(=O)OC)c(C)c2C(=O)OC)cc1O	inconclusive: -64.1%
CC(=O)N1CCc2cc3nc(C)cc(C)c3cc21	inconclusive: -30.5%
CC1CCc2nn(CC(=O)N3CCN(C(=O)c4ccco4)CC3)cc2C1 (stereo unspecified)	inconclusive: -56.5%
CC(=O)/C(N=Nc1ccc2c(c1)OCO2)=C(\C)O	inconclusive: -78.6%
Cc1ccc(C(O)(C(=O)NNc2ccc3ccccc3n2)c2ccc(C)cc2)cc1	inactive: 85.7% and inconclusive: -30%
CCOC(=O)CSc1ncc(-c2ccccc2)cn1	inconclusive: -33.4%
CCCC1(c2ccccc2)NC(=O)N(CCN2C(=O)c3ccccc3C2=O)C1=O (stereo unspecified)	inconclusive: -69.8%
COc1ccc2c(c1OC)C(=O)N1N=C(c3ccccc3)CC21 (stereo unspecified)	inconclusive: -63.8%
C=CCn1c(CCNC(=O)c2ccccc2F)nnc1SCC(=O)Nc1nc(C)cs1	inconclusive: -52.1%
C=CCNC(=O)C1(c2ccccc2)CC1(Cl)Cl (stereo unspecified)	inactive: -18.2%
CCNC(=S)N(CCc1c(C)[nH]c2ccccc12)Cc1cc(OC)c(OC)c(OC)c1	inactive: 40.7%
O=C(Nc1ccc(F)c(Cl)c1)c1ccc2c(=O)n3c(nc2c1)CCCCC3	inconclusive: -36.4%

Structure (SMILES)	activity change (PNC), negative = inhibition
C=CCNC(=O)C1CCN(c2c([N+](=O)[O-])cc(C(F)(F)F)cc2[N+](=O)[O-])CC1	inconclusive: -55.7%
Cc1ccc(C(O)(C(=O)NN(C(=O)c2ccccc2)c2ccccc2)c2ccc(C)cc2)cc1	inactive: 12.7%
CC(C)Sc1nnc([C@@H]2CCCN2C(=O)OC(C)(C)C)o1	inconclusive: -34%
CCOC(=O)N1CCC(NC(=O)CN2C(=O)C(CC)Oc3ccc(C)cc32)CC1 (stereo unspecified)	inconclusive: -34.6%
O=C(CSc1nc(O)c(Cc2ccccc2)c(=O)n1-c1ccccc1)N1CCOCC1	inactive: 17%
O=C(Nc1ccc(O)cc1)C1CC=CCC1 (stereo unspecified)	inconclusive: -46.7%
CCOc1ccc(S(=O)(=O)Nc2ccccc2C(=O)NCc2ccco2)cc1	inconclusive: -61.6%
C=CCNC(=S)N/N=C(\C)c1ccccn1	inconclusive: -48%
COCCn1c(=NC(=O)c2ccc3c(c2)OCO3)c(C#N)cc2c(=O)n3cccc(C)c3nc21	inconclusive: -31.2%
COCCCNC(=O)C1CCCN(C(=O)Nc2ccc(OC)cc2)C1 (stereo unspecified)	inconclusive: -54.5%
Cc1nn(Cc2ccc(C(=O)Nc3nccs3)cc2)c(C)c1Cl	inconclusive: -32%
Cc1ccc(NC(=S)Nc2ccc(C(C)C)cc2)cc1S(=O)(=O)N1CCCCCC1	inactive: -14.7%
Cc1cc(SC(C)C(=O)Nc2ncc(Cl)cc2Cl)nc2ccccc12 (stereo unspecified)	active: -92%
CCN(CC)S(=O)(=O)c1ccc2c(c1)nc(SCC(N)=O)n2-c1ccc(OC)cc1	inactive: -10.4%
Cc1cccc([N+](=O)[O-])c1NC(=O)CN(Cc1ccccc1)Cc1ccccc1	inconclusive: -51.8%
CC(=O)Nc1ccc(Cl)cc1C1COC(=O)C1=N (stereo unspecified)	inactive: 16.9%
O=C1CCCC/C1=C\Nc1ccc(O)cc1	active: -117%
c1nc2nc3c(c(N4CCOCC4)n2n1)CCCC3	active: -107%
NC(=O)Nc1cccc2ccccc12	active: -105%
CN1CCN(C(=O)c2ccc3c(=O)n(Cc4ccco4)c(=S)[nH]c3c2)CC1	inactive: 39%
CCOc1ccc(S(=O)(=O)NN)cc1	inactive: -25.4%
Cn1cc(C(=O)NCc2ccccc2F)cn1	inactive: -25.6%
O=C(O)C1CCCCC1C(=O)NCc1ccncc1 (stereo unspecified)	inconclusive: -63.7%

Structure (SMILES)	activity change (PNC), negative = inhibition
CC(C)(C)c1cc(C(C)(C)C)cc(S(=O)(=O)CCc2ccccn2)c1	inconclusive: -33.8%
CCCCN1CC(C(=O)NCc2ccc(C)cc2)CC1=O (stereo unspecified)	inconclusive: -35.6%
Cc1ccc(C2(O)CN(c3ccccc3C)C3=[N+]2CCS3)cc1 (stereo unspecified)	inactive: 15.9%
CC(COC(=O)c1ccccc1)(COC(=O)c1ccccc1)/[N+]([O-])=C/c1ccccc1	inconclusive: -44.3%
CCN1CCN(CC(=O)n2c3c(c4ccccc42)CC(C)CC3)CC1 (stereo unspecified)	inconclusive: -32.1%
COc1ccc(-c2[nH]ncc2-c2csc(C)n2)c(O)c1	active: -91%
COc1cccc(C(=O)N2CCCC(c3nc(-c4cccs4)no3)C2)c1 (stereo unspecified)	inconclusive: -73.1%
O=C(c1cc(-c2ccc(Cl)c(Cl)c2)on1)N1CCCCC1	inactive: 22.3%
COc1ccccc1-c1cc(C(F)(F)F)nc(S(C)(=O)=O)n1	inconclusive: -76.7%
OCCNc1nc(SCc2ccccc2)nc2sc3c(c12)CCC3	inconclusive: -42.7%
O=C(C1CC1)N1CCc2cc(Br)cc(S(=O)(=O)N3CCOCC3)c21	inconclusive: -36.5%
CCOC(=O)CSc1nnc(-c2ccc(S(=O)(=O)N3CCOCC3)cc2)n1-c1ccccc1	inconclusive: -43.4%
O=C(CN1C(=O)/C(=C2\SC(=S)N(C3CCS(=O)(=O)C3)C2=O)c2ccccc21)Nc1ccccc1 (stereo unspecified)	inactive: -2.24%
CCOc1ccc(CCNC(=O)c2cc3sccc3n2C)cc1OCC	inconclusive: -79.3%
O=C1c2cccc3cccc(c23)N1Cc1ccc(F)cc1	inactive: 27.8%
CN(/C(=N/S(=O)(=O)c1cccs1)c1ccccc1)c1ccccc1	inconclusive: -66.5%
Cc1nn(-c2ccccc2)c(C)c1C(=O)OCC(=O)NC(=O)NC1CCCC1	inconclusive: -66.2%
CCC(=O)Nc1nonc1-c1nc2ccccc2n1Cc1ccccc1	inconclusive: -54.4%
COc1cccc(OCCCOc2ccc([N+](=O)[O-])cc2Cl)c1	inactive: -15.8%
O=C(c1ccc2c(c1)OCO2)N1CCCC(c2ccccc2)C1 (stereo unspecified)	inactive: -6.81%
CC(=O)Oc1c2occc2cc2ccc(=O)oc12	inconclusive: -63.2%
Cc1ccc(N(CC(=O)Nc2cc(C)cc(C)c2)S(=O)(=O)c2cccc3nonc23)cc1	inconclusive: -57.9%

— PubChem BioAssay AID2417 (National Center for Advancing Translational Sciences (NCATS), 2010)
